Data from US6511804B1, “Selective assay for determining the identity of live microorganisms in a mixed culture” (priority 1998, dated 2003).
At least one structure is not confirmed: it was looked up by name or label, or the drawing left a doubt.

Test system: E. coli strain NK5830
Test: BrdU immunocapture/PCR antibiotic sensitivity assay, strain NK5830
Conditions: antibiotic 100 μg/ml, FIG. 4

CN(C)[C@@H]1C(O)=C(C(N)=O)C(=O)[C@@]2(O)C(O)=C3C(=O)c4c(O)cccc4[C@@](C)(O)[C@H]3C[C@@H]12 [tetracycline]
immunocapture/PCR signal (BrdU-labeled DNA, gel): significant positive signal
